## Assay results

Source: PubChem BioAssay AID1080 (Emory University Molecular Libraries Screening Center, 2008).

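A counter-screen in EP4-overexpressing cells measuring cyclic AMP with a time-resolved FRET kit under weak PGE2 stimulation.
Compounds were tested at 20 µM final. A low (about EC15) PGE2 dose was present.
Percent cAMP induction as a fraction of the 1 µM PGE2 response, averaged over three replicates; a higher value means more cAMP.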

Values are in %.
Common to all entries: measured here: EP4 receptor counter-screen.
Part of the compounds only, not a random draw; the main read-out is not listed here.

CCOc1ccc(Cc2n[nH]c(=S)n2Cc2ccccc2)cc1 [percent of 1 uM PGE2 response; plus low (about EC15) PGE2 agonist] read cAMP induction 10.14%.
CCOC(=O)C1CCCN(c2c(C(=O)c3ccccc3)cnc3ccc(OC)cc23)C1 (stereo unspecified) [percent of 1 uM PGE2 response; plus low (about EC15) PGE2 agonist] read cAMP induction -10.74%.
Fc1ccccc1Nc1nc2c(s1)CCc1ccccc1-2 [percent of 1 uM PGE2 response; plus low (about EC15) PGE2 agonist] read cAMP induction -23.96%.
CCOc1ccccc1-c1nc2c(C(C)(C)C)nn(C)c2c(=O)[nH]1 [percent of 1 uM PGE2 response; plus low (about EC15) PGE2 agonist] read cAMP induction 5.873%.
O=C(O)CCCN1C(=O)/C(=C\c2ccco2)SC1=S [percent of 1 uM PGE2 response; plus low (about EC15) PGE2 agonist] read cAMP induction 3.673%.
CCn1c2ccccc2c2cc(Nc3cc(C)nc4ncnn34)ccc21 [percent of 1 uM PGE2 response; plus low (about EC15) PGE2 agonist] read cAMP induction -4.81%.
CN(Cc1cc(Br)cc(Br)c1O)Cc1c(O)ccc2ccccc12 [percent of 1 uM PGE2 response; plus low (about EC15) PGE2 agonist] read cAMP induction -13.92%.
CCc1ccc2nc(-c3cccc(C)c3)nc(SCC(=O)NCC3CCCO3)c2c1 (stereo unspecified) [percent of 1 uM PGE2 response; plus low (about EC15) PGE2 agonist] read cAMP induction 3.733%.
S=c1[nH]nc(C23CC4CC(CC(C4)C2)C3)n1Cc1ccco1 [percent of 1 uM PGE2 response; plus low (about EC15) PGE2 agonist] read cAMP induction 4.943%.
CCOc1ccc2cc(C#N)c(SCC(=O)NC(C)CC)nc2c1 (stereo unspecified) [percent of 1 uM PGE2 response; plus low (about EC15) PGE2 agonist] read cAMP induction 40.79%.
Cc1c(OCc2ccccc2)c(=O)ccn1Cc1ccc(Cl)cc1 [percent of 1 uM PGE2 response; plus low (about EC15) PGE2 agonist] read cAMP induction 3.77%.
CCC(=O)Oc1ccc(C(CC)C(CC)c2ccc(OC(=O)CC)cc2)cc1 (stereo unspecified) [percent of 1 uM PGE2 response; plus low (about EC15) PGE2 agonist] read cAMP induction 2.72%.
CCOC(=O)c1sc2nc3c(SCC(=O)O)cc(C(=O)c4cc(F)ccc4O)cn3c(=O)c2c1C [percent of 1 uM PGE2 response; plus low (about EC15) PGE2 agonist] read cAMP induction -6.737%.
C/C(CCc1oc2ccccc2c1-c1ccc(C)o1)=N/O [percent of 1 uM PGE2 response; plus low (about EC15) PGE2 agonist] read cAMP induction 0.2867%.

Some entries from above, unchanged:

| SMILES | tested on / at | cAMP induction (%) |
|---|---|---|
| `CCC(=O)Oc1ccc(C(CC)C(CC)c2ccc(OC(=O)CC)cc2)cc1` (stereo unspecified) | percent of 1 uM PGE2 response; plus low (about EC15) PGE2 agonist | 2.72 |
| `CCOc1ccc2cc(C#N)c(SCC(=O)NC(C)CC)nc2c1` (stereo unspecified) | percent of 1 uM PGE2 response; plus low (about EC15) PGE2 agonist | 40.79 |